# No constants are given. Whether binding was seen depends on the method and setting. Binding seen in cells or lysates may run through a third protein. Here binding means that the protein was enriched with, or labelled near, the bait; the list need not be complete.
# B1: HORMA domain-containing protein1 (protein, UniProt Q86X24 1-394)
# chain: MATAQLQRTPMSALVFPNKISTEHQSLVLVKRLLAVSVSCITYLRGIFPECAYGTRYLDDLCVKILREDKNCPGSTQLVKWMLGCYDALQKKYLRMVVLAVYTNPEDPQTISECYQFKFKYTNNGPLMDFISKNQSNESSMLSTDTKKASILLIRKIYILMQNLGPLPNDVCLTMKLFYYDEVTPPDYQPPGFKDGDCEGVIFEGEPMYLNVGEVSTPFHIFKVKVTTERERMENIDSTILSPKQIKTPFQKILRDKDVEDEQEHYTSDDLDIETKMEEQEKNPASSELEEPSLVCEEDEIMRSKESPDLSISHSQVEQLVNKTSELDMSESKTRSGKVFQNKMANGNQPVKSSKENRKRSQHESGRIVLHHFDSSSQESVPKRRKFSEPKEHI
# B2: E3 SUMO-protein ligase NSE2 (protein, UniProt Q96MF7 1-247)
# chain: MPGRSSSNSGSTGFISFSGVESALSSLKNFQACINSGMDTASSVALDLVESQTEVSSEYSMDKAMVEFATLDRQLNHYVKAVQSTINHVKEERPEKIPDLKLLVEKKFLALQSKNSDADFQNNEKFVQFKQQLKELKKQCGLQADREADGTEGVDEDIIVTQSQTNFTCPITKEEMKKPVKNKVCGHTYEEDAIVRMIESRQKRKKKAYCPQIGCSHTDIRKSDLIQDEALRRAIENHNKKRHRHSE
# B3: BTB/POZ domain-containing protein2 (protein, UniProt Q9BX70 1-525)
# chain: MAAGGSGGRASCPPGVGVGPGTGGSPGPSANAAATPAPGNAAAAAAAAAAAAAAPGPTPPAPPGPGTDAQAAGAERAEEAAGPGAAALQREAAYNWQASKPTVQERFAFLFNNEVLCDVHFLVGKGLSSQRIPAHRFVLAVGSAVFDAMFNGGMATTSTEIELPDVEPAAFLALLKFLYSDEVQIGPETVMTTLYTAKKYAVPALEAHCVEFLKKNLRADNAFMLLTQARLFDEPQLASLCLENIDKNTADAITAEGFTDIDLDTLVAVLERDTLGIREVRLFNAVVRWSEAECQRQQLQVTPENRRKVLGKALGLIRFPLMTIEEFAAGPAQSGILVDREVVSLFLHFTVNPKPRVEFIDRPRCCLRGKECSINRFQQVESRWGYSGTSDRIRFSVNKRIFVVGFGLYGSIHGPTDYQVNIQIIHTDSNTVLGQNDTGFSCDGSASTFRVMFKEPVEVLPNVNYTACATLKGPDSHYGTKGLRKVTHESPTTGAKTCFTFCYAAGNNNGTSVEDGQIPEVIFYT
# B4: Quinone oxidoreductase-like protein1 (protein, UniProt O95825 1-349)
# chain: MKGLYFQQSSTDEEITFVFQEKEDLPVTEDNFVKLQVKACALSQINTKLLAEMKMKKDLFPVGREIAGIVLDVGSKVSFFQPDDEVVGILPLDSEDPGLCEVVRVHEHYLVHKPEKVTWTEAAGSIRDGVRAYTALHYLSHLSPGKSVLIMDGASAFGTIAIQLAHHRGAKVISTACSLEDKQCLERFRPPIARVIDVSNGKVHVAESCLEETGGLGVDIVLDAGVRLYSKDDEPAVKLQLLPHKHDIITLLGVGGHWVTTEENLQLDPPDSHCLFLKGATLAFLNDEVWNLSNVQQGKYLCILKDVMEKLSTGVFRPQLDEPIPLYEAKVSMEAVQKNQGRKKQVVQF
# B5: DNA-binding protein SMUBP-2 (protein, UniProt P38935 1-993)
# chain: MASAAVESFVTKQLDLLELERDAEVEERRSWQENISLKELQSRGVCLLKLQVSSQRTGLYGRLLVTFEPRRYGSAAALPSNSFTSGDIVGLYDAANEGSQLATGILTRVTQKSVTVAFDESHDFQLSLDRENSYRLLKLANDVTYRRLKKALIALKKYHSGPASSLIEVLFGRSAPSPASEIHPLTFFNTCLDTSQKEAVLFALSQKELAIIHGPPGTGKTTTVVEIILQAVKQGLKVLCCAPSNIAVDNLVERLALCKQRILRLGHPARLLESIQQHSLDAVLARSDSAQIVADIRKDIDQVFVKNKKTQDKREKSNFRNEIKLLRKELKEREEAAMLESLTSANVVLATNTGASADGPLKLLPESYFDVVVIDECAQALEASCWIPLLKARKCILAGDHKQLPPTTVSHKAALAGLSLSLMERLAEEYGARVVRTLTVQYRMHQAIMRWASDTMYLGQLTAHSSVARHLLRDLPGVAATEETGVPLLLVDTAGCGLFELEEEDEQSKGNPGEVRLVSLHIQALVDAGVPARDIAVVSPYNLQVDLLRQSLVHRHPELEIKSVDGFQGREKEAVILSFVRSNRKGEVGFLAEDRRINVAVTRARRHVAVICDSRTVNNHAFLKTLVEYFTQHGEVRTAFEYLDDIVPENYSHENSQGSSHAATKPQGPATSTRTGSQRQEGGQEAAAPARQGRKKPAGKSLASEAPSQPSLNGGSPEGVESQDGVDHFRAMIVEFMASKKMQLEFPPSLNSHDRLRVHQIAEEHGLRHDSSGEGKRRFITVSKRAPRPRAALGPPAGTGGPAPLQPVPPTPAQTEQPPREQRGPDQPDLRTLHLERLQRVRSAQGQPASKEQQASGQQKLPEKKKKKAKGHPATDLPTEEDFEALVSAAVKADNTCGFAKCTAGVTTLGQFCQLCSRRYCLSHHLPEIHGCGERARAHARQRISREGVLYAGSGTKNGSLDPAKRAQLQRRLDKKLSELSNQRTSRRKERGT
# B6: Fanconi anemia group A protein (protein, UniProt O15360 1-1455)
# chain: MSDSWVPNSASGQDPGGRRRAWAELLAGRVKREKYNPERAQKLKESAVRLLRSHQDLNALLLEVEGPLCKKLSLSKVIDCDSSEAYANHSSSFIGSALQDQASRLGVPVGILSAGMVASSVGQICTAPAETSHPVLLTVEQRKKLSSLLEFAQYLLAHSMFSRLSFCQELWKIQSSLLLEAVWHLHVQGIVSLQELLESHPDMHAVGSWLFRNLCCLCEQMEASCQHADVARAMLSDFVQMFVLRGFQKNSDLRRTVEPEKMPQVTVDVLQRMLIFALDALAAGVQEESSTHKIVRCWFGVFSGHTLGSVISTDPLKRFFSHTLTQILTHSPVLKASDAVQMQREWSFARTHPLLTSLYRRLFVMLSAEELVGHLQEVLETQEVHWQRVLSFVSALVVCFPEAQQLLEDWVARLMAQAFESCQLDSMVTAFLVVRQAALEGPSAFLSYADWFKASFGSTRGYHGCSKKALVFLFTFLSELVPFESPRYLQVHILHPPLVPGKYRSLLTDYISLAKTRLADLKVSIENMGLYEDLSSAGDITEPHSQALQDVEKAIMVFEHTGNIPVTVMEASIFRRPYYVSHFLPALLTPRVLPKVPDSRVAFIESLKRADKIPPSLYSTYCQACSAAEEKPEDAALGVRAEPNSAEEPLGQLTAALGELRASMTDPSQRDVISAQVAVISERLRAVLGHNEDDSSVEISKIQLSINTPRLEPREHMAVDLLLTSFCQNLMAASSVAPPERQGPWAALFVRTMCGRVLPAVLTRLCQLLRHQGPSLSAPHVLGLAALAVHLGESRSALPEVDVGPPAPGAGLPVPALFDSLLTCRTRDSLFFCLKFCTAAISYSLCKFSSQSRDTLCSCLSPGLIKKFQFLMFRLFSEARQPLSEEDVASLSWRPLHLPSADWQRAALSLWTHRTFREVLKEEDVHLTYQDWLHLELEIQPEADALSDTERQDFHQWAIHEHFLPESSASGGCDGDLQAACTILVNALMDFHQSSRSYDHSENSDLVFGGRTGNEDIISRLQEMVADLELQQDLIVPLGHTPSQEHFLFEIFRRRLQALTSGWSVAASLQRQRELLMYKRILLRLPSSVLCGSSFQAEQPITARCEQFFHLVNSEMRNFCSHGGALTQDITAHFFRGLLNACLRSRDPSLMVDFILAKCQTKCPLILTSALVWWPSLEPVLLCRWRRHCQSPLPRELQKLQEGRQFASDFLSPEAASPAPNPDWLSAAALHFAIQQVREENIRKQLKKLDCEREELLVFLFFFSLMGLLSSHLTSNSTTDLPKAFHVCAAILECLEKRKISWLALFQLTESDLRLGRLLLRVAPDQHTRLLPFAFYSLLSYFHEDAAIREEAFLHVAVDMYLKLVQLFVAGDTSTVSPPAGRSLELKGQGNPVELITKARLFLLQLIPRCPKKSFSHVAELLADRGDCDPEVSAALQSRQQAAPDADLSQEPHLF
# B7: Putative postmeiotic segregation increased 2-like protein 1 (protein, UniProt A4D2B8 1-440)
# chain: MVTMCGGHRPENFLHQVLTEFGEELAGEGKSEVGGGAPRSYLQVASAECWAAAPAVHVGEPVHAGGLHTERGADPVIGLYLVHRGGACQTPTVGNRQTPTLGIHARPRRRATTSLLTLLLAFGKNAVRCALIGPGSLTSRTRPLTEPLGEKERREVFFPPRPERVEHNVESSRWEPRRRGACGSRGGNFPSPRGGSGVASLERAESSSTEPAKAIKPIDRKSVHQICSGPVVPSLSTAVKELVENSLDAGATNIDLKLKDYGVDLIEVSGNGCGVEEENFEGLTLKHHTSKIQEFADLPQVETFGFRGEALSSLCALSDVTISTCHVSAKVGTRLVFDHYGKIIQKTPYPHPRGMTVSVKQLFSTLPVHHKEFQRNIKKKRACFPFAFCRDCQFPEASPAMLPVQPAELTPRSTPPHPCSLEDNVITVFSSVKNGPGSSR
# Target: FLAG-tagged wild-type NEK1 (human)
# Assay: affinity purification with mass spectrometry; NEK1-FLAG (control GFP-FLAG) expressed in HEK293T, cells untreated or treated with 10 ug/mL cisplatin for 24 h; lysis in 50 mM Tris-HCl pH 7.4, 150 mM NaCl, 1 mM EDTA, 1% Triton X-100; lysate incubated overnight with anti-FLAG M2 Affinity Gel; SDS-PAGE, LC-MS/MS; proteome and phosphoproteome analyses; only proteins absent from GFP-FLAG controls
row,Binder,binding
1,B1,binds
2,B2,binds
3,B3,binds
4,B4,binds
5,B5,binds
6,B6,binds
7,B7,binds

# From paper PMC5511132
